OD600 data for 3 molecules are collected here from the supplement of paper PMC11546906.

The other results are listed elsewhere or left out. Repeats in this data set agree poorly, so a single value says little.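 FDA-approved drugs were each paired with colistin at one-eighth its MIC and screened against a multidrug-resistant, mcr-1-positive clinical E. coli isolate, with OD600 read after 24 h. Drug-free bacteria served as growth control, plain broth as blank. Combinations were active if OD600 dropped below 0.2.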

The experiment deals with Escherichia coli 42 (mcr-1-positive clinical isolate). The experiment is described as follows: OD600 after 24 h growth with compound plus colistin (absorbance units (OD600)); higher = more bacterial growth (less inhibition). The following applies: first compound 25 µM; colistin concentration 0.5 ug/mL; incubation time 24 h; 37 °C.
Consider `C[C@@H](O)[C@H]1C(=O)N2C(C(=O)O)=C(S[C@@H]3CN[C@H](CNS(N)(=O)=O)C3)[C@H](C)[C@H]12` [Doripenem monohydrate] + CCC(C)CCCC(=O)N[C@@H](CCN)C(=O)N[C@H](C(=O)N[C@@H](CCN)C(=O)N[C@H]1CCNC(=O)[C@H]([C@@H](C)O)NC(=O)[C@H](CCN)NC(=O)[C@H](CCN)NC(=O)[C@H](CC(C)C)NC(=O)[C@@H](CC(C)C)NC(=O)[C@H](CCN)NC1=O)[C@@H](C)O [colistin], for which the OD600 was inactive: 0.831.

`O=C(O)C1=C(CSc2nnnn2CS(=O)(=O)O)CS[C@@H]2[C@H](NC(=O)[C@H](O)c3ccccc3)C(=O)N12` [Cefonicid sodium] + CCC(C)CCCC(=O)N[C@@H](CCN)C(=O)N[C@H](C(=O)N[C@@H](CCN)C(=O)N[C@H]1CCNC(=O)[C@H]([C@@H](C)O)NC(=O)[C@H](CCN)NC(=O)[C@H](CCN)NC(=O)[C@H](CC(C)C)NC(=O)[C@@H](CC(C)C)NC(=O)[C@H](CCN)NC1=O)[C@@H](C)O [colistin]: the OD600 was inactive: 1.02.

For the molecule `CC[C@H]1OC(=O)[C@H](C)[C@@H](O[C@H]2C[C@@](C)(OC)[C@@H](O)[C@H](C)O2)[C@H](C)[C@@H](O[C@@H]2O[C@H](C)C[C@H](N(C)C)[C@H]2O)[C@](C)(O)C[C@@H](C)C(=O)[C@H](C)[C@@H](O)[C@]1(C)O` [Erythromycin] + CCC(C)CCCC(=O)N[C@@H](CCN)C(=O)N[C@H](C(=O)N[C@@H](CCN)C(=O)N[C@H]1CCNC(=O)[C@H]([C@@H](C)O)NC(=O)[C@H](CCN)NC(=O)[C@H](CCN)NC(=O)[C@H](CC(C)C)NC(=O)[C@@H](CC(C)C)NC(=O)[C@H](CCN)NC1=O)[C@@H](C)O [colistin], the OD600 is active: 0.038.
